This passage reports cell number change and AC50 results from PubChem BioAssay AID2685 (National Center for Advancing Translational Sciences (NCATS), 2010).

The list shows a part of the results. These are further read-outs of the screen, such as a control signal, another cell line or another target. No call is given for them. The list favours compounds with an active or inconclusive main result. The note in brackets gives the kind of curve behind each potency; many fits are weak.

A short description of this assay: qHTS Assay for Lipid Storage Modulators in Drosophila S3 Cells.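 On cell number change: cells counted by Cell Tracker Red CMTPX staining in the red channel.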 The conditions noted are these: BODIPY lipid droplet fluorescence, 18-24 h; for cell number change: measured here: cell count max response, cells fed with added oleic acid. The method in brief: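 Drosophila S3 cells got compounds at several concentrations plus oleic acid (400 uM solution). Laser-scanning cytometry with 488 nm excitation read lipid droplets at 500-530 nm and cells at 575-640 nm. Percent activity was relative to 20 uM Triacsin C.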
(Quantitative high-throughput screening tests each substance at several concentrations.)

Where [1] appears, read: measured here: lipid fluorescence (Fed channel) AC50, cells fed with added oleic acid.
Setting [2] is: measured here: cell number channel AC50, cells fed with added oleic acid.

As to `O=C(Nc1cc([N+](=O)[O-])ccc1Cl)C(Sc1ccccc1)c1ccccc1` (centres undefined), the cell number change is -0.994%. Also, the AC50 (as a rule, the concentration at which the activity in the assay is half-maximal) under setting [1] is 1640 nM [rising, partial curve, poor fit].

Consider `COc1ccc(C(=O)N2CCN=C2SC)cc1OC`, for which the cell number change worked out at 0.304%. The AC50 under setting [1] was 366 nM [falling, partial curve].

Turning to `CCOCCCNC(=O)Cc1ccc(-n2c(CC)nc3cccnc32)cc1`, the cell number change is -27.9%. Under setting [2], the AC50 is 4110 nM [falling, full curve, poor fit].

`O=C(COC(=O)c1ccccc1O)Nc1cccc(S(=O)(=O)N2CCCC2)c1`: the AC50 under setting [1] is 3660 nM [falling, partial curve].

For `CCC(C)NC(=O)CCn1c(=O)c2cccn2c2ccc(F)cc21` (centres undefined), the cell number change was -13.5%. Further, the AC50 under setting [2] was 65.1 nM [rising, partial curve, poor fit].

For `CCCCN1CCc2c([nH]c3ccc(C)cc23)C1=O`, the cell number change is -32.4%. Also, under setting [1], the AC50 is 5170 nM [falling, full curve, poor fit].

Take `Cc1nn(C)c(C)c1S(=O)(=O)N1CCCC(C(=O)N2CCN(c3ccc(Cl)cc3)CC2)C1` (centres undefined): under setting [1], the AC50 is 29100 nM [falling, single point].

As to `COCO/C=C(\NC(C)=O)c1ccccc1`, the cell number change worked out at 18%. Moreover, the AC50 under setting [1] is 18400 nM [rising, single point].

`Cc1ccc(NC(=O)C2CCN(C(=O)c3cccs3)CC2)cc1`: the cell number change was 10.9%.

With `Cc1nc(C(=O)NCCC(C)C)sc1C1(C)CC(c2ccccc2)=NO1` (centres undefined), the cell number change worked out at 5.07%. The AC50 under setting [1] is 1640 nM [rising, partial curve, poor fit].

On to `O=C1/C(=C/c2ccc3c(c2)OCO3)CCC/C1=C\c1ccc2c(c1)OCO2`, for which the cell number change stood at 22.7%. The AC50 under setting [1] was 23.1 nM [rising, full curve, poor fit].

With `Cc1cc(=O)[nH]c2c1c(C)nn2-c1ccccc1`, the half-maximal activity concentration (AC50) by setting is: under setting [2], 4110 nM [falling, single point]; under setting [1], 184 nM [rising, full curve, poor fit].

In the case of `Cc1cc(C)c(C#N)c(SCCS(=O)(=O)Cc2ccc(Cl)cc2)n1`, the cell number change was -10%.

`CCN(CC)S(=O)(=O)c1ccc(N2CCOCC2)c(NC(=O)c2cccc(C#N)c2)c1`: the AC50 under setting [2] was 130 nM [rising, full curve].

For `O=C(OCC(=O)N1CCOCC1)c1ccc(O)cc1`, the cell number change is -7.69%.

In the case of `CC(C)NC(=O)c1nc2c(nnn2Cc2cccc(Cl)c2)c(=O)[nH]1`, the cell number change was -1.72%.

For the compound `CN(C)c1cccc(C(=O)NNC(=O)/C=C/c2cccs2)c1`, the cell number change was -23.9%. In addition, under setting [2], the AC50 was 651 nM [falling, full curve, poor fit].

As for `CCn1c(/C=C/Nc2ccccc2)[n+](CC)c2ccc(Cl)cc21`, the cell number change is -7.58%. In addition, the AC50 under setting [1] was 16400 nM [rising, partial curve].
